# Test results reported in the supplement of paper PMC11438910.
# Some of the results follow. Only a few entries rise above the background.
# B1: 4-80.1 (protein)
# chain 1: QVQLQESGPGLVKPSETLSLTCAVSGIPISTYWWSWIRQTPEKGLEWIGEIDGNGGGTNYNPSLQSRVTFSKDASKNQFSLRLNSVTAADTAVFYCARLWGNAYWGQGVLVTVSS
# chain 2: DVVMTQSPLSLPINPGQPASISCRSSQSLVYSDGKTYLTWYQQKPGQPPRRLIYQVSKRDSGVPDRFSGSGAGTDFTLKISRVESEDVGIYYCLQGTHLPYTFGQGTKVEIK
# Tests used:
# Assay in all cases: fluorescence intensity of antibody binding to polysaccharide-coupled beads; higher = stronger binding
# [1] = biological target: pneumococcal polysaccharide Pn19B
# [2] = biological target: pneumococcal polysaccharide Pn19C
# [3] = biological target: pneumococcal polysaccharide Pn19F
# [4] = biological target: pneumococcal polysaccharide Pn2
# [5] = biological target: pneumococcal polysaccharide Pn20A
# [6] = biological target: pneumococcal polysaccharide Pn20B
# [7] = biological target: pneumococcal polysaccharide Pn21
# [8] = biological target: pneumococcal polysaccharide Pn22A
# [9] = biological target: pneumococcal polysaccharide Pn22F
# [10] = biological target: pneumococcal polysaccharide Pn23A
# [11] = biological target: pneumococcal polysaccharide Pn23B
# [12] = biological target: pneumococcal polysaccharide Pn23F
# [13] = biological target: pneumococcal polysaccharide Pn24A
# [14] = biological target: pneumococcal polysaccharide Pn24B
# [15] = biological target: pneumococcal polysaccharide Pn24F
# [16] = biological target: pneumococcal polysaccharide Pn25A
# [17] = biological target: pneumococcal polysaccharide Pn25F
# [18] = biological target: pneumococcal polysaccharide Pn27
# [19] = biological target: pneumococcal polysaccharide Pn28A
# [20] = biological target: pneumococcal polysaccharide Pn28F
# [21] = biological target: pneumococcal polysaccharide Pn29
# [22] = biological target: pneumococcal polysaccharide Pn3
# [23] = biological target: pneumococcal polysaccharide Pn31
# [24] = antibody concentration 0.1 ng/mL
# [25] = antibody concentration 0.534724 ng/mL
# [26] = antibody concentration 2.8593 ng/mL
# [27] = antibody concentration 15.2894 ng/mL
# [28] = antibody concentration 81.7561 ng/mL
# [29] = antibody concentration 437.17 ng/mL
# [30] = antibody concentration 2337.65 ng/mL
# [31] = antibody concentration 12500 ng/mL
binder,measurement,setting,value
B1,fluorescence intensity,[1]; [24],31 MFI
same,fluorescence intensity,[1]; [25],28 MFI
same,fluorescence intensity,[1]; [26],30 MFI
same,fluorescence intensity,[1]; [27],29.5 MFI
same,fluorescence intensity,[1]; [28],34 MFI
same,fluorescence intensity,[1]; [29],59.5 MFI
same,fluorescence intensity,[1]; [30],118 MFI
same,fluorescence intensity,[1]; [31],275 MFI
same,fluorescence intensity,[2]; [24],25.5 MFI
same,fluorescence intensity,[2]; [25],26.5 MFI
same,fluorescence intensity,[2]; [26],25.5 MFI
same,fluorescence intensity,[2]; [27],27 MFI
same,fluorescence intensity,[2]; [28],31.5 MFI
same,fluorescence intensity,[2]; [29],143 MFI
same,fluorescence intensity,[2]; [30],528 MFI
same,fluorescence intensity,[2]; [31],1100 MFI
same,fluorescence intensity,[3]; [24],25.5 MFI
same,fluorescence intensity,[3]; [25],28 MFI
same,fluorescence intensity,[3]; [26],30.5 MFI
same,fluorescence intensity,[3]; [27],65.5 MFI
same,fluorescence intensity,[3]; [28],263 MFI
same,fluorescence intensity,[3]; [29],912 MFI
same,fluorescence intensity,[3]; [30],1460 MFI
same,fluorescence intensity,[3]; [31],1760 MFI
same,fluorescence intensity,[4]; [24],20.5 MFI
same,fluorescence intensity,[4]; [25],20.5 MFI
same,fluorescence intensity,[4]; [26],19.5 MFI
same,fluorescence intensity,[4]; [27],26 MFI
same,fluorescence intensity,[4]; [28],74.5 MFI
same,fluorescence intensity,[4]; [29],468 MFI
same,fluorescence intensity,[4]; [30],995 MFI
same,fluorescence intensity,[4]; [31],1250 MFI
same,fluorescence intensity,[5]; [24],23 MFI
same,fluorescence intensity,[5]; [25],23.5 MFI
same,fluorescence intensity,[5]; [26],22 MFI
same,fluorescence intensity,[5]; [27],27 MFI
same,fluorescence intensity,[5]; [28],58 MFI
same,fluorescence intensity,[5]; [29],416 MFI
same,fluorescence intensity,[5]; [30],960 MFI
same,fluorescence intensity,[5]; [31],1340 MFI
same,fluorescence intensity,[6]; [24],24 MFI
same,fluorescence intensity,[6]; [25],24 MFI
same,fluorescence intensity,[6]; [26],23.5 MFI
same,fluorescence intensity,[6]; [27],24.5 MFI
same,fluorescence intensity,[6]; [28],24.5 MFI
same,fluorescence intensity,[6]; [29],30.5 MFI
same,fluorescence intensity,[6]; [30],51.5 MFI
same,fluorescence intensity,[6]; [31],108 MFI
same,fluorescence intensity,[7]; [24],17.2 MFI
same,fluorescence intensity,[7]; [25],19.8 MFI
same,fluorescence intensity,[7]; [26],20 MFI
same,fluorescence intensity,[7]; [27],18.8 MFI
same,fluorescence intensity,[7]; [28],20.2 MFI
same,fluorescence intensity,[7]; [29],21 MFI
same,fluorescence intensity,[7]; [30],23.5 MFI
same,fluorescence intensity,[7]; [31],36.8 MFI
same,fluorescence intensity,[8]; [24],22 MFI
same,fluorescence intensity,[8]; [25],21.5 MFI
same,fluorescence intensity,[8]; [26],22 MFI
same,fluorescence intensity,[8]; [27],30.5 MFI
same,fluorescence intensity,[8]; [28],63.5 MFI
same,fluorescence intensity,[8]; [29],370 MFI
same,fluorescence intensity,[8]; [30],901 MFI
same,fluorescence intensity,[8]; [31],1330 MFI
same,fluorescence intensity,[9]; [24],31.8 MFI
same,fluorescence intensity,[9]; [25],31 MFI
same,fluorescence intensity,[9]; [26],28.2 MFI
same,fluorescence intensity,[9]; [27],41 MFI
same,fluorescence intensity,[9]; [28],136 MFI
same,fluorescence intensity,[9]; [29],505 MFI
same,fluorescence intensity,[9]; [30],817 MFI
same,fluorescence intensity,[9]; [31],1020 MFI
same,fluorescence intensity,[10]; [24],24.8 MFI
same,fluorescence intensity,[10]; [25],25.2 MFI
same,fluorescence intensity,[10]; [26],25.5 MFI
same,fluorescence intensity,[10]; [27],30 MFI
same,fluorescence intensity,[10]; [28],50 MFI
same,fluorescence intensity,[10]; [29],160 MFI
same,fluorescence intensity,[10]; [30],316 MFI
same,fluorescence intensity,[10]; [31],443 MFI
same,fluorescence intensity,[11]; [24],30.5 MFI
same,fluorescence intensity,[11]; [25],30 MFI
same,fluorescence intensity,[11]; [26],28.8 MFI
same,fluorescence intensity,[11]; [27],31 MFI
same,fluorescence intensity,[11]; [28],31.8 MFI
same,fluorescence intensity,[11]; [29],49.2 MFI
same,fluorescence intensity,[11]; [30],141 MFI
same,fluorescence intensity,[11]; [31],307 MFI
same,fluorescence intensity,[12]; [24],18.5 MFI
same,fluorescence intensity,[12]; [25],17.5 MFI
same,fluorescence intensity,[12]; [26],17.8 MFI
same,fluorescence intensity,[12]; [27],19.2 MFI
same,fluorescence intensity,[12]; [28],17 MFI
same,fluorescence intensity,[12]; [29],19.2 MFI
same,fluorescence intensity,[12]; [30],25.8 MFI
same,fluorescence intensity,[12]; [31],42.5 MFI
same,fluorescence intensity,[13]; [24],16 MFI
same,fluorescence intensity,[13]; [25],15.8 MFI
same,fluorescence intensity,[13]; [26],15.8 MFI
same,fluorescence intensity,[13]; [27],25 MFI
same,fluorescence intensity,[13]; [28],103 MFI
same,fluorescence intensity,[13]; [29],791 MFI
same,fluorescence intensity,[13]; [30],1660 MFI
same,fluorescence intensity,[13]; [31],2140 MFI
same,fluorescence intensity,[14]; [24],19 MFI
same,fluorescence intensity,[14]; [25],19 MFI
same,fluorescence intensity,[14]; [26],16.5 MFI
same,fluorescence intensity,[14]; [27],18.5 MFI
same,fluorescence intensity,[14]; [28],22 MFI
same,fluorescence intensity,[14]; [29],45 MFI
same,fluorescence intensity,[14]; [30],85.2 MFI
same,fluorescence intensity,[14]; [31],126 MFI
same,fluorescence intensity,[15]; [24],17 MFI
same,fluorescence intensity,[15]; [25],18 MFI
same,fluorescence intensity,[15]; [26],19.8 MFI
same,fluorescence intensity,[15]; [27],21.2 MFI
same,fluorescence intensity,[15]; [28],28 MFI
same,fluorescence intensity,[15]; [29],123 MFI
same,fluorescence intensity,[15]; [30],296 MFI
same,fluorescence intensity,[15]; [31],295 MFI
same,fluorescence intensity,[16]; [24],23.5 MFI
same,fluorescence intensity,[16]; [25],25 MFI
same,fluorescence intensity,[16]; [26],23.8 MFI
same,fluorescence intensity,[16]; [27],25 MFI
same,fluorescence intensity,[16]; [28],30 MFI
same,fluorescence intensity,[16]; [29],117 MFI
same,fluorescence intensity,[16]; [30],464 MFI
same,fluorescence intensity,[16]; [31],889 MFI
same,fluorescence intensity,[17]; [24],29.8 MFI
same,fluorescence intensity,[17]; [25],33 MFI
same,fluorescence intensity,[17]; [26],29.5 MFI
same,fluorescence intensity,[17]; [27],30 MFI
same,fluorescence intensity,[17]; [28],34.5 MFI
same,fluorescence intensity,[17]; [29],66.5 MFI
same,fluorescence intensity,[17]; [30],153 MFI
same,fluorescence intensity,[17]; [31],274 MFI
same,fluorescence intensity,[18]; [24],18.5 MFI
same,fluorescence intensity,[18]; [25],16.8 MFI
same,fluorescence intensity,[18]; [26],18.5 MFI
same,fluorescence intensity,[18]; [27],22.2 MFI
same,fluorescence intensity,[18]; [28],61.8 MFI
same,fluorescence intensity,[18]; [29],269 MFI
same,fluorescence intensity,[18]; [30],634 MFI
same,fluorescence intensity,[18]; [31],984 MFI
same,fluorescence intensity,[19]; [24],26.5 MFI
same,fluorescence intensity,[19]; [25],28 MFI
same,fluorescence intensity,[19]; [26],26.5 MFI
same,fluorescence intensity,[19]; [27],28 MFI
same,fluorescence intensity,[19]; [28],28.5 MFI
same,fluorescence intensity,[19]; [29],51 MFI
same,fluorescence intensity,[19]; [30],178 MFI
same,fluorescence intensity,[19]; [31],451 MFI
same,fluorescence intensity,[20]; [24],29.8 MFI
same,fluorescence intensity,[20]; [25],29 MFI
same,fluorescence intensity,[20]; [26],28.5 MFI
same,fluorescence intensity,[20]; [27],31.5 MFI
same,fluorescence intensity,[20]; [28],47.5 MFI
same,fluorescence intensity,[20]; [29],236 MFI
same,fluorescence intensity,[20]; [30],651 MFI
same,fluorescence intensity,[20]; [31],1000 MFI
same,fluorescence intensity,[21]; [24],17 MFI
same,fluorescence intensity,[21]; [25],16 MFI
same,fluorescence intensity,[21]; [26],17.8 MFI
same,fluorescence intensity,[21]; [27],19.8 MFI
same,fluorescence intensity,[21]; [28],41.2 MFI
same,fluorescence intensity,[21]; [29],233 MFI
same,fluorescence intensity,[21]; [30],573 MFI
same,fluorescence intensity,[21]; [31],870 MFI
same,fluorescence intensity,[22]; [24],13.8 MFI
same,fluorescence intensity,[22]; [25],12.8 MFI
same,fluorescence intensity,[22]; [26],13.5 MFI
same,fluorescence intensity,[22]; [27],13 MFI
same,fluorescence intensity,[22]; [28],14 MFI
same,fluorescence intensity,[22]; [29],15 MFI
same,fluorescence intensity,[22]; [30],18.5 MFI
same,fluorescence intensity,[22]; [31],32.5 MFI
same,fluorescence intensity,[23]; [24],14 MFI
same,fluorescence intensity,[23]; [25],14 MFI
same,fluorescence intensity,[23]; [26],16.5 MFI
same,fluorescence intensity,[23]; [27],34.5 MFI

# Part of the list above in a different format.
binder	measurement	setting	value
B1	fluorescence intensity	[7]; [29]	21 MFI
same	fluorescence intensity	[7]; [30]	23.5 MFI
same	fluorescence intensity	[7]; [31]	36.8 MFI
same	fluorescence intensity	[8]; [24]	22 MFI
same	fluorescence intensity	[8]; [25]	21.5 MFI
same	fluorescence intensity	[8]; [26]	22 MFI
same	fluorescence intensity	[8]; [27]	30.5 MFI
same	fluorescence intensity	[8]; [28]	63.5 MFI
same	fluorescence intensity	[8]; [29]	370 MFI
same	fluorescence intensity	[8]; [30]	901 MFI
same	fluorescence intensity	[8]; [31]	1330 MFI
same	fluorescence intensity	[9]; [24]	31.8 MFI
same	fluorescence intensity	[9]; [25]	31 MFI
same	fluorescence intensity	[9]; [26]	28.2 MFI
same	fluorescence intensity	[9]; [27]	41 MFI
same	fluorescence intensity	[9]; [28]	136 MFI
same	fluorescence intensity	[9]; [29]	505 MFI
same	fluorescence intensity	[9]; [30]	817 MFI
same	fluorescence intensity	[9]; [31]	1020 MFI
same	fluorescence intensity	[10]; [24]	24.8 MFI
same	fluorescence intensity	[10]; [25]	25.2 MFI
same	fluorescence intensity	[10]; [26]	25.5 MFI
same	fluorescence intensity	[10]; [27]	30 MFI
same	fluorescence intensity	[10]; [28]	50 MFI
same	fluorescence intensity	[10]; [29]	160 MFI
same	fluorescence intensity	[10]; [30]	316 MFI
same	fluorescence intensity	[10]; [31]	443 MFI
same	fluorescence intensity	[11]; [24]	30.5 MFI
same	fluorescence intensity	[11]; [25]	30 MFI
same	fluorescence intensity	[11]; [26]	28.8 MFI
same	fluorescence intensity	[11]; [27]	31 MFI
same	fluorescence intensity	[11]; [28]	31.8 MFI
same	fluorescence intensity	[11]; [29]	49.2 MFI
same	fluorescence intensity	[11]; [30]	141 MFI
same	fluorescence intensity	[11]; [31]	307 MFI
same	fluorescence intensity	[12]; [24]	18.5 MFI
same	fluorescence intensity	[12]; [25]	17.5 MFI
same	fluorescence intensity	[12]; [26]	17.8 MFI
same	fluorescence intensity	[12]; [27]	19.2 MFI
same	fluorescence intensity	[12]; [28]	17 MFI
same	fluorescence intensity	[12]; [29]	19.2 MFI
same	fluorescence intensity	[12]; [30]	25.8 MFI
same	fluorescence intensity	[12]; [31]	42.5 MFI
same	fluorescence intensity	[13]; [24]	16 MFI
same	fluorescence intensity	[13]; [25]	15.8 MFI
same	fluorescence intensity	[13]; [26]	15.8 MFI
same	fluorescence intensity	[13]; [27]	25 MFI
same	fluorescence intensity	[13]; [28]	103 MFI
same	fluorescence intensity	[13]; [29]	791 MFI
same	fluorescence intensity	[13]; [30]	1660 MFI
same	fluorescence intensity	[13]; [31]	2140 MFI
same	fluorescence intensity	[14]; [24]	19 MFI
same	fluorescence intensity	[14]; [25]	19 MFI
same	fluorescence intensity	[14]; [26]	16.5 MFI
same	fluorescence intensity	[14]; [27]	18.5 MFI
same	fluorescence intensity	[14]; [28]	22 MFI
